Holding throughout (assay): co-IP
Experiment [1] has as its target SMAD4 (immunoprecipitation) (UniProt Q13485).
Experiment [2] has the same target. The source holds these as a separate data set.
In experiment [3] the target is β-catenin (immunoprecipitation) (human) (UniProt P35222).

Protein sequences, listed by entry. Tags and fused reporters are not part of them.
UniProt Q13485: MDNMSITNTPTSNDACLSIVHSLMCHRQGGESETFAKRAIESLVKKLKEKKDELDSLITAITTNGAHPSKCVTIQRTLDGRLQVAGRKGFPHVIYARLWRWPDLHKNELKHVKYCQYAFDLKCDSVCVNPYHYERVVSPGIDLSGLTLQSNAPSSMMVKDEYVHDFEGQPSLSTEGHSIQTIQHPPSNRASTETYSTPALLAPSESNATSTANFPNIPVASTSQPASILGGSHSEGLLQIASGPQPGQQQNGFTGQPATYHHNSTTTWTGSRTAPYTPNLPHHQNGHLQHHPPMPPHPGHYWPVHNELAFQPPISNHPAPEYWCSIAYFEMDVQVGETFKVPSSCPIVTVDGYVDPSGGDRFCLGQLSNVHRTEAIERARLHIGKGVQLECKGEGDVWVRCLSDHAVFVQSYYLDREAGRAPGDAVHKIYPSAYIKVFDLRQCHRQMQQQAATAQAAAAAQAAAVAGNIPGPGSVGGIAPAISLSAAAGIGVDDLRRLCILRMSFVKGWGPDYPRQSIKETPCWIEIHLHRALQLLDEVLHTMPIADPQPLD
UniProt P35222: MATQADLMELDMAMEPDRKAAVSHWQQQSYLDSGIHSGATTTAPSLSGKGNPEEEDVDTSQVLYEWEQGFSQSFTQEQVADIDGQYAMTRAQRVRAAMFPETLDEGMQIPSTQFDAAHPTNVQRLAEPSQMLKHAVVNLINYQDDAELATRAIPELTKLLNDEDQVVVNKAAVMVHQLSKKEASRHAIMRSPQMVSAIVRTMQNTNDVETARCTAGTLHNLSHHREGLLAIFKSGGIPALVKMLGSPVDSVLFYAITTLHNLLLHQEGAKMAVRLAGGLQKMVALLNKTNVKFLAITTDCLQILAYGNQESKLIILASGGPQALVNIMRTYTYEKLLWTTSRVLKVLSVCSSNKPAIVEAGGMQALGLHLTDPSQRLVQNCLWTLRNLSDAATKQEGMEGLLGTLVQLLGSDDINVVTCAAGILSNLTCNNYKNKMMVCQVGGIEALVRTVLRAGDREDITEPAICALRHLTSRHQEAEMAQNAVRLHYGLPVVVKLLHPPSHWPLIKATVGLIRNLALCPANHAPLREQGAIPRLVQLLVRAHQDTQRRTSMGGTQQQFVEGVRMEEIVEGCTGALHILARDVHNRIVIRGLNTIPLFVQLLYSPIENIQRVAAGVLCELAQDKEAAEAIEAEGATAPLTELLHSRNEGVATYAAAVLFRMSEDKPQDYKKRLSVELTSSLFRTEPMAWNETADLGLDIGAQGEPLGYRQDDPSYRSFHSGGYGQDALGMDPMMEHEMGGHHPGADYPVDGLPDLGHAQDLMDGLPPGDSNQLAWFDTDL
UniProt Q93009: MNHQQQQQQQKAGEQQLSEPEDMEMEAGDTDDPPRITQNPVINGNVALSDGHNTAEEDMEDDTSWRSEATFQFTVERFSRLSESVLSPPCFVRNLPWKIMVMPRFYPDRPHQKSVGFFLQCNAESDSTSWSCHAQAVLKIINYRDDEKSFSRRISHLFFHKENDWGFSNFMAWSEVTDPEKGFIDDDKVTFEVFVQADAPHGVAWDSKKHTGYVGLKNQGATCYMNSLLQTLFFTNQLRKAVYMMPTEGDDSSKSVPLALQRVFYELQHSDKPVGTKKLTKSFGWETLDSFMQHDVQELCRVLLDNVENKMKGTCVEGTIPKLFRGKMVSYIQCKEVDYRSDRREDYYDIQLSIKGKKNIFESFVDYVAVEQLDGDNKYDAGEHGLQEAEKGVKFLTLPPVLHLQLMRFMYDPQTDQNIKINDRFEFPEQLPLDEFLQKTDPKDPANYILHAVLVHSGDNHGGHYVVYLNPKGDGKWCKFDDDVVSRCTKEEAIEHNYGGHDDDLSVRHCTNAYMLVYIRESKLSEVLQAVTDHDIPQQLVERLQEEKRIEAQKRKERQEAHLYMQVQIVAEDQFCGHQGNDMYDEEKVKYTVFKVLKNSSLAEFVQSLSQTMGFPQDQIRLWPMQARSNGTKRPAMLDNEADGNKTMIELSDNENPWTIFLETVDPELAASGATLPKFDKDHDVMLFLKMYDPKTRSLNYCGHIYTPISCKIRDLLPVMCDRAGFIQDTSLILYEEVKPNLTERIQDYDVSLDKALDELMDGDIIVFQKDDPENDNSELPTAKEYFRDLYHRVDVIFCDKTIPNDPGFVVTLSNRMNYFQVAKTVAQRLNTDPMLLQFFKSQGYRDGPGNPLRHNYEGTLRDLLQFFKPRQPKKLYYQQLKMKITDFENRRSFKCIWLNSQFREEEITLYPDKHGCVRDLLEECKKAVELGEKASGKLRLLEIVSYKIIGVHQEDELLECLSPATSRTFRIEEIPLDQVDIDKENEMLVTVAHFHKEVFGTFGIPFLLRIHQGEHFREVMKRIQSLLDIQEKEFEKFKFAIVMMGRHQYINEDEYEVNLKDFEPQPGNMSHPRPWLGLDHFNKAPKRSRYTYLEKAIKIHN

Read-outs that look alike come from different tables or passages of the source. These are yes or no findings as the source states them, for the method shown. In cells and extracts the contact can be indirect. Some entries that bind do so weakly or less than the wild type.

For “USP7 (cloned, immunoprecipitation) (from UniProt Q93009 1-1102)”, the binding entry in experiment [1] is recorded as “binds”.

B1: TRIM33 (cloned, immunoprecipitation) (protein, UniProt Q9UPN9 1-1127)
chain: MAENKGGGEAESGGGGSGSAPVTAGAAGPAAQEAEPPLTAVLVEEEEEEGGRAGAEGGAAGPDDGGVAAASSGSAQAASSPAASVGTGVAGGAVSTPAPAPASAPAPGPSAGPPPGPPASLLDTCAVCQQSLQSRREAEPKLLPCLHSFCLRCLPEPERQLSVPIPGGSNGDIQQVGVIRCPVCRQECRQIDLVDNYFVKDTSEAPSSSDEKSEQVCTSCEDNASAVGFCVECGEWLCKTCIEAHQRVKFTKDHLIRKKEDVSESVGASGQRPVFCPVHKQEQLKLFCETCDRLTCRDCQLLEHKEHRYQFLEEAFQNQKGAIENLLAKLLEKKNYVHFAATQVQNRIKEVNETNKRVEQEIKVAIFTLINEINKKGKSLLQQLENVTKERQMKLLQQQNDITGLSRQVKHVMNFTNWAIASGSSTALLYSKRLITFQLRHILKARCDPVPAANGAIRFHCDPTFWAKNVVNLGNLVIESKPAPGYTPNVVVGQVPPGTNHISKTPGQINLAQLRLQHMQQQVYAQKHQQLQQMRMQQPPAPVPTTTTTTQQHPRQAAPQMLQQQPPRLISVQTMQRGNMNCGAFQAHQMRLAQNAARIPGIPRHSGPQYSMMQPHLQRQHSNPGHAGPFPVVSVHNTTINPTSPTTATMANANRGPTSPSVTAIELIPSVTNPENLPSLPDIPPIQLEDAGSSSLDNLLSRYISGSHLPPQPTSTMNPSPGPSALSPGSSGLSNSHTPVRPPSTSSTGSRGSCGSSGRTAEKTSLSFKSDQVKVKQEPGTEDEICSFSGGVKQEKTEDGRRSACMLSSPESSLTPPLSTNLHLESELDALASLENHVKIEPADMNESCKQSGLSSLVNGKSPIRSLMHRSARIGGDGNNKDDDPNEDWCAVCQNGGDLLCCEKCPKVFHLTCHVPTLLSFPSGDWICTFCRDIGKPEVEYDCDNLQHSKKGKTAQGLSPVDQRKCERLLLYLYCHELSIEFQEPVPASIPNYYKIIKKPMDLSTVKKKLQKKHSQHYQIPDDFVADVRLIFKNCERFNEMMKVVQVYADTQEINLKADSEVAQAGKAVALYFEDKLTEIYSDRTFAPLPEFEQEEDDGEVTEDSDEDFIQPRRKRLKSDERPVHIK
For B1, the binding entry in experiment [2] and in experiment [3] was “binds” in each case.

B2: ERC1 (cloned, immunoprecipitation) (protein, UniProt Q8IUD2 1-1116)
chain: MYGSARSVGKVEPSSQSPGRSPRLPRSPRLGHRRTNSTGGSSGSSVGGGSGKTLSMENIQSLNAAYATSGPMYLSDHENVGSETPKSTMTLGRSGGRLPYGVRMTAMGSSPNIASSGVASDTIAFGEHHLPPVSMASTVPHSLRQARDNTIMDLQTQLKEVLRENDLLRKDVEVKESKLSSSMNSIKTFWSPELKKERALRKDEASKITIWKEQYRVVQEENQHMQMTIQALQDELRIQRDLNQLFQQDSSSRTGEPCVAELTEENFQRLHAEHERQAKELFLLRKTLEEMELRIETQKQTLNARDESIKKLLEMLQSKGLSAKATEEDHERTRRLAEAEMHVHHLESLLEQKEKENSMLREEMHRRFENAPDSAKTKALQTVIEMKDSKISSMERGLRDLEEEIQMLKSNGALSTEEREEEMKQMEVYRSHSKFMKNKVEQLKEELSSKEAQWEELKKKAAGLQAEIGQVKQELSRKDTELLALQTKLETLTNQFSDSKQHIEVLKESLTAKEQRAAILQTEVDALRLRLEEKETMLNKKTKQIQDMAEEKGTQAGEIHDLKDMLDVKERKVNVLQKKIENLQEQLRDKEKQMSSLKERVKSLQADTTNTDTALTTLEEALAEKERTIERLKEQRDRDEREKQEEIDNYKKDLKDLKEKVSLLQGDLSEKEASLLDLKEHASSLASSGLKKDSRLKTLEIALEQKKEECLKMESQLKKAHEAALEARASPEMSDRIQHLEREITRYKDESSKAQAEVDRLLEILKEVENEKNDKDKKIAELERQVKDQNKKVANLKHKEQVEKKKSAQMLEEARRREDNLNDSSQQLQDSLRKKDDRIEELEEALRESVQITAEREMVLAQEESARTNAEKQVEELLMAMEKVKQELESMKAKLSSTQQSLAEKETHLTNLRAERRKHLEEVLEMKQEALLAAISEKDANIALLELSSSKKKTQEEVAALKREKDRLVQQLKQQTQNRMKLMADNYEDDHFKSSHSNQTNHKPSPDQIIQPLLELDQNRSKLKLYIGHLTTLCHDRDPLILRGLTPPASYNLDDDQAAWENELQKMTRGQLQDELEKGERDNAELQEFANAILQQIADHCPDILEQVVNALEESS
Turning to B2, the binding entry in experiment [2] and in experiment [3] was “binds” each time.

Source of the values: publication doi:10.1101/2025.06.02.657518.
